# Some of the results follow. Single values are uncertain, as repeats are few or missing.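 Cells were imaged in 1,536-well plates, and nuclei stained with an antibody against cleaved PARP were counted against all DNA-stained nuclei to give the apoptosis fraction. Screening doses were chosen to leave most cells alive, and resting and induced cleaved-PARP levels differ strongly between cell lines.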
# Assays:
# Experiment in all cases: cleaved PARP positive nuclei fraction relative to DMSO control; melanoma cells; higher = more apoptosis
# Conditions in all cases: library dose: low library concentration; 72 h
# 501Mel = test system: 501Mel
# A101D = test system: A101D
# A2058 = test system: A2058
# A375 = test system: A375
# C32 = test system: C32
# CBRC013 = test system: CBRC013 (line from a melanoma biopsy)
# CBRC014 = test system: CBRC014 (line from a melanoma biopsy)
# CBRC016 = test system: CBRC016 (line from a melanoma biopsy)
# CBRC017 = test system: CBRC017 (line from a melanoma biopsy)
# CBRC034 = test system: CBRC034 (line from a melanoma biopsy)
# COLO792 = test system: COLO792
# COLO800 = test system: COLO800
# COLO829 = test system: COLO829
# G361 = test system: G361
# IPC-298 = test system: IPC-298
# IST-MEL1 = test system: IST-MEL1
# LB2518-MEL = test system: LB2518-MEL
# LOXIMVI = test system: LOXIMVI
SMILES,cleaved PARP positive nuclei fraction (501Mel),cleaved PARP positive nuclei fraction (A101D),cleaved PARP positive nuclei fraction (A2058),cleaved PARP positive nuclei fraction (A375),cleaved PARP positive nuclei fraction (C32),cleaved PARP positive nuclei fraction (CBRC013),cleaved PARP positive nuclei fraction (CBRC014),cleaved PARP positive nuclei fraction (CBRC016),cleaved PARP positive nuclei fraction (CBRC017),cleaved PARP positive nuclei fraction (CBRC034),cleaved PARP positive nuclei fraction (COLO792),cleaved PARP positive nuclei fraction (COLO800),cleaved PARP positive nuclei fraction (COLO829),cleaved PARP positive nuclei fraction (G361),cleaved PARP positive nuclei fraction (IPC-298),cleaved PARP positive nuclei fraction (IST-MEL1),cleaved PARP positive nuclei fraction (LB2518-MEL),cleaved PARP positive nuclei fraction (LOXIMVI)
"c1cc(-c2cnn3cc(-c4ccc(OCCN5CCCCC5)cc4)cnc23)ccn1 [Dorsomorphin] + COc1cc(N2CCC(N3CCN(C)CC3)CC2)ccc1Nc1ncc(Cl)c(Nc2ccccc2S(=O)(=O)C(C)C)n1 [NVP-TAE684] (first compound 0.4 µM, partner dose 0.08 µM)",84.2%,158%,112%,131%,177%,254%,95.4%,31.9%,80.1%,28.3%,67.9%,201%,109%,31.8%,82.5%,159%,246%,62%
"CCc1ccc(CCOc2ccc(CC3SC(=O)NC3=O)cc2)nc1 (stereo unspecified) [pioglitazone] + COc1ccc2c(c1)CCC1C2CCC2(C)C(NCCCCCCN3C(=O)C=CC3=O)CCC12 [U73122] (first compound 2 µM, partner dose 0.4 µM)",83.5%,64.4%,47.5%,197%,185%,132%,102%,68.7%,118%,100%,202%,98.9%,65%,204%,43.9%,29.6%,140%,90.8%
"CCN(CC)CCCCNc1ncc2cc(-c3cc(OC)cc(OC)c3)c(NC(=O)NC(C)(C)C)nc2n1 + Oc1nc(-c2ccc(C(F)(F)F)cc2)nc2c1CSCC2 [XAV939] (first compound 0.1 µM, partner dose 2 µM)",75.8%,52.4%,210%,61.9%,260%,58%,77.7%,36.4%,72.9%,236%,150%,38.7%,62.9%,122%,116%,96.2%,82.5%,66.8%
"COC(=O)c1sccc1S(=O)(=O)Nc1ccc(Nc2ccccc2)cc1OC + COc1ccc2c(c1)CCC1C2CCC2(C)C(NCCCCCCN3C(=O)C=CC3=O)CCC12 [U73122] (first compound 1 µM, partner dose 0.4 µM)",63.6%,104%,84.3%,180%,90.8%,77.9%,193%,59.6%,42.5%,83.4%,150%,100%,91.3%,102%,41.6%,45.8%,82.7%,49.1%
"N#Cc1c(O)c2c(-c3ccc(-c4ccccc4O)cc3)csc2[nH]c1=O + Oc1nc(-c2ccc(C(F)(F)F)cc2)nc2c1CSCC2 [XAV939] (first compound 2 µM, partner dose 2 µM)",81.9%,39.8%,220%,114%,136%,169%,78.5%,63.1%,91.6%,26%,134%,121%,81.2%,130%,326%,134%,85.2%,543%
"O=C(O)C(=O)Nc1sc2c(c1C(=O)O)CCNC2 + Cc1cc([N+](=O)[O-])ccc1NS(=O)(=O)c1cc(Cl)ccc1Cl [FH535] (first compound 1.66667 µM, partner dose 1 µM)",87%,61.8%,61.6%,298%,83.9%,35.5%,118%,110%,227%,387%,107%,56.2%,224%,41.9%,74.7%,92.2%,232%,73.7%
"COc1cc2c(Oc3ccc4[nH]c(C)cc4c3F)ncnc2cc1OCCCN1CCCC1 [cediranib] + COc1ccc2c(c1)CCC1C2CCC2(C)C(NCCCCCCN3C(=O)C=CC3=O)CCC12 [U73122] (first compound 0.4 µM, partner dose 0.4 µM)",87.9%,45%,61.7%,86.4%,43.9%,154%,142%,43.7%,95.9%,97.2%,103%,120%,169%,64.9%,125%,134%,84%,62.6%
"CN(C)S(=O)(=O)c1ccc2c(c1)/C(=C/c1cc3c([nH]1)CCCC3)C(=O)N2 + O=C1NC(=O)/C(=C/c2ccc(-c3ccc(F)cc3O)o2)S1 [AS252424] (first compound 0.4 µM, partner dose 1 µM)",92.4%,478%,88.8%,72.7%,92.4%,227%,137%,102%,49.4%,111%,48%,143%,131%,139%,129%,89%,85.5%,266%
"CN(C)S(=O)(=O)c1ccc2c(c1)/C(=C/c1cc3c([nH]1)CCCC3)C(=O)N2 + Oc1cc(-c2nc(-c3ccccc3)[nH]c2-c2ccncc2)ccc1Cl [L779450] (first compound 0.4 µM, partner dose 0.2 µM)",61.2%,125%,54.5%,26%,46.8%,42.3%,113%,84.5%,90.3%,90.1%,166%,87.5%,143%,80.7%,93.4%,48%,49.6%,12.1%
"Cc1cc([N+](=O)[O-])ccc1NS(=O)(=O)c1cc(Cl)ccc1Cl + CCCCCCCCCCCC1=C(O)C(=O)C=C(O)C1=O [Embelin] (first compound 1 µM, partner dose 1.2 µM)",76.9%,49.8%,143%,199%,256%,86%,156%,1310%,1040%,609%,99.2%,52.3%,166%,114%,28.6%,44.5%,56.7%,33.2%
"COc1cc(N2CCC(N3CCN(C)CC3)CC2)ccc1Nc1ncc(Cl)c(Nc2ccccc2S(=O)(=O)C(C)C)n1 + CC(C)CCN1c2nc(Nc3cc(F)c(O)c(F)c3)ncc2N(C)C(=O)C1C [BID1870] (first compound 0.08 µM, partner dose 0.2 µM)",69.6%,140%,297%,109%,42.8%,220%,125%,40.8%,84.2%,57.9%,45.4%,102%,95.6%,103%,153%,36.4%,149%,27.4%
"NCC(=O)Nc1ccc(-n2nc(C(F)(F)F)cc2-c2ccc3c(ccc4ccccc43)c2)cc1 + CC(C)CCN1c2nc(Nc3cc(F)c(O)c(F)c3)ncc2N(C)C(=O)C1C [BID1870] (first compound 1 µM, partner dose 0.2 µM)",294%,302%,122%,1530%,60.4%,26.9%,129%,83.8%,89.1%,194%,136%,62.6%,68.9%,112%,29.8%,63.2%,41.1%,39.6%
"COc1ccc(COc2ccc(Cc3cnc(N)nc3N)cc2OC)cc1 + Cc1cc([N+](=O)[O-])ccc1NS(=O)(=O)c1cc(Cl)ccc1Cl [FH535] (first compound 1 µM, partner dose 1 µM)",34.9%,60.1%,138%,53.5%,323%,44.7%,242%,257%,416%,177%,144%,73.2%,129%,142%,87.6%,139%,79.1%,65.5%
"CCCCCCCCCCCC1=C(O)C(=O)C=C(O)C1=O [Embelin] + CC(C)CCN1c2nc(Nc3cc(F)c(O)c(F)c3)ncc2N(C)C(=O)C1C [BID1870] (first compound 1.2 µM, partner dose 0.2 µM)",322%,125%,67.1%,15.4%,38.1%,88.4%,99.3%,21.1%,86.6%,177%,154%,110%,89%,133%,40.7%,40.1%,176%,13.5%
"O=C(O)c1ccc(-c2c[nH]c3ncc(-c4ccccc4)cc23)cc1C1CCCC1 + Cc1cc([N+](=O)[O-])ccc1NS(=O)(=O)c1cc(Cl)ccc1Cl [FH535] (first compound 0.16 µM, partner dose 1 µM)",40.1%,213%,44.9%,256%,84.4%,194%,171%,1550%,357%,695%,163%,124%,90.7%,168%,41.3%,128%,104%,44.2%
"O=S(=O)(c1ccccc1)N(CC(F)(F)F)c1ccc(C(O)(C(F)(F)F)C(F)(F)F)cc1 + Cn1cc(/C=C2\C(=O)Nc3cccnc32)c2ccccc21 [GW441756] (first compound 1.4 µM, partner dose 0.4 µM)",200%,37.3%,106%,110%,52.7%,57.2%,92.6%,67.5%,117%,45.5%,88.4%,75.2%,109%,333%,123%,113%,71.8%,97.9%
"COc1cc2c(Oc3ccc4[nH]c(C)cc4c3F)ncnc2cc1OCCCN1CCCC1 [cediranib] + Cn1cc(/C=C2\C(=O)Nc3cccnc32)c2ccccc21 [GW441756] (first compound 0.4 µM, partner dose 0.4 µM)",51.2%,103%,55.3%,98.4%,51.4%,156%,92.7%,38.1%,93.4%,82.1%,89.9%,65.6%,142%,63.2%,78.2%,138%,92.1%,64.9%

# An excerpt from above with just cleaved PARP positive nuclei fraction (A2058), cleaved PARP positive nuclei fraction (501Mel) and cleaved PARP positive nuclei fraction (COLO829):
SMILES | cleaved PARP positive nuclei fraction (A2058) | cleaved PARP positive nuclei fraction (501Mel) | cleaved PARP positive nuclei fraction (COLO829)
CCc1ccc(CCOc2ccc(CC3SC(=O)NC3=O)cc2)nc1 (stereo unspecified) [pioglitazone] + COc1ccc2c(c1)CCC1C2CCC2(C)C(NCCCCCCN3C(=O)C=CC3=O)CCC12 [U73122] (first compound 2 µM, partner dose 0.4 µM) | 47.5% | 83.5% | 65%
CCCCCCCCCCCC1=C(O)C(=O)C=C(O)C1=O [Embelin] + CC(C)CCN1c2nc(Nc3cc(F)c(O)c(F)c3)ncc2N(C)C(=O)C1C [BID1870] (first compound 1.2 µM, partner dose 0.2 µM) | 67.1% | 322% | 89%

# — the supplement of paper PMC4604168 (melanoma cell lines)
